# Tests used:
# [1] = Field-effect mobility of holes, organic thin film transistor produced by coating method; details: spin-coated film from 0.4 mass % toluene solution, p-type, gate voltage VG −70 V
# [2] = Field-effect mobility of holes, organic thin film transistor produced by deposition method; details: for Field-effect mobility: vacuum-deposited 50 nm layer on Si/SiO2, holes, current saturation region
smiles,measurement,setting,value
CCCCCCCCCCCCc1ccc2c(c1)sc1c2ccc2c1ccc1c3ccc(CCCCCCCCCCCC)cc3sc12 [Comparative compound (1)],Field-effect mobility,[1]; listed as Comparative compound 1,1.1 × 10^−4 cm^2/Vs
same,Field-effect mobility,[1]; listed as comparative compound (1),very low
same,Field-effect mobility,[2],1.2 × 10^−1 cm^2/Vs
CCCCCc1ccc2c(c1)sc1c2ccc2c1ccc1c3ccc(CCCCC)cc3sc12 [Compound A-3],Field-effect mobility,[1],1.1×10^−1 cm^2/Vs
same,Field-effect mobility,[2],1.1 × 10^−0 cm^2/Vs
same,field-effect mobility of holes in the current saturation region,"[2]; vacuum-deposited 50 nm layer, gate voltage 0 to −100 V",1.1 cm^2Ns
c1ccc2cc3cc4cc5ccccc5cc4cc3cc2c1 [pentacene],Field-effect mobility,[2],3.8×10^1 cm^2/Vs

# — US20140061616A1, “ORGANIC SEMICONDUCTOR MATERIAL, COATING LIQUID CONTAINING THE MATERIAL, AND ORGANIC THIN FILM TRANSISTOR” (IDEMITSU KOSAN CO., LTD., priority 2010, published 2014)
